Binding data for 3 molecules are collected here from publication PMC4529982.

The chains behind the UniProt entries cited, without tags or fusion partners.
UniProt Q01860: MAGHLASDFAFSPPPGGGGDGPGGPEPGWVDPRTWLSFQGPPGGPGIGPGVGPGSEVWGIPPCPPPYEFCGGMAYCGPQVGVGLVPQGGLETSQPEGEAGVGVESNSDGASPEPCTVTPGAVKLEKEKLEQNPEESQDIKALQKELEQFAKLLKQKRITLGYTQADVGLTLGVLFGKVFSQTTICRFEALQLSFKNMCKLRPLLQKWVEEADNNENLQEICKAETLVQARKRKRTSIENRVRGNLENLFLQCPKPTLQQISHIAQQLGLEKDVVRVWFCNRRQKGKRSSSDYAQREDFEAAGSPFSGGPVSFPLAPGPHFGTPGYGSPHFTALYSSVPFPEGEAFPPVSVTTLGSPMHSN

No constants are given. Whether binding was seen depends on the method and setting. In cells and extracts the contact can be indirect. Some entries that bind do so weakly or less than the wild type.

Experiment [1] deals with T1, Nox4 (human (endogenous in AFSC)) (UniProt Q9NPH5).
T1 sequence: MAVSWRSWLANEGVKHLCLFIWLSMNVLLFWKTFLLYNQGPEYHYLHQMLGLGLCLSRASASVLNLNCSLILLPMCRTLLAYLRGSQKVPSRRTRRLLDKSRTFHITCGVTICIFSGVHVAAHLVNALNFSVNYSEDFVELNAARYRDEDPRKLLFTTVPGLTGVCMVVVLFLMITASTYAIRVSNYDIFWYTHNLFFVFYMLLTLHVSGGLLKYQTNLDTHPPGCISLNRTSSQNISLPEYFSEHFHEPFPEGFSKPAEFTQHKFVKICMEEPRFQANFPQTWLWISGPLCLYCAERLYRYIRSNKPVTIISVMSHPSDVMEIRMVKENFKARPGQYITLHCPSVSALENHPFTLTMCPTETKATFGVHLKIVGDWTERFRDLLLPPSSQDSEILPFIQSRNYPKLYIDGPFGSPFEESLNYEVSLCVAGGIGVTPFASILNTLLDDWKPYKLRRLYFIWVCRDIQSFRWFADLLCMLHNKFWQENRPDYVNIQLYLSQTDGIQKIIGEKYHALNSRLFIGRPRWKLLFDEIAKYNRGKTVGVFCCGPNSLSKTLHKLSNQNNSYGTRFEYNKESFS
Nature of the experiment: co-IP; nuclear lysate (NL) of human AFSC immunoprecipitated with Nox4 antibody, western blot with anti-Oct4 and anti-sc-35. In general terms: In western blotting, separated proteins are transferred to a membrane and probed.

Experiment [2] has as its target T1, Nox4 (human (endogenous in AFSC)). As to the kind of experiment: co-IP; precleared total lysates of human AFSC (AT lysis buffer: 20 mM Tris-Cl pH 7.0, 1% Nonidet P-40, 150 mM NaCl, 10% glycerol, 10 mM EDTA) incubated overnight with rabbit anti-Nox4 or mouse anti-sc-35 (3 ug), protein A/G agarose at 4°C, western blot.
Experiment [3] concerns the target T2, sc-35 (human (endogenous in AFSC)) (UniProt Q01130).
T2 sequence: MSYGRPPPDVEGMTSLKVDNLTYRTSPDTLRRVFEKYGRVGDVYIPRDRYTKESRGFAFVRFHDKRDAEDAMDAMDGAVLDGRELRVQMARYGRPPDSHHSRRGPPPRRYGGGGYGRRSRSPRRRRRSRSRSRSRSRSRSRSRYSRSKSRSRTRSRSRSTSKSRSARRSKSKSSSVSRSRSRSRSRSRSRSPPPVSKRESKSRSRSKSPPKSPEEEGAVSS
The experiment is described as above.

As to Oct4 (from UniProt Q01860 1-360), the binding entry in experiment [1] is “binds”.

B1: sc-35 (protein, UniProt Q01130 1-221)
chain: T2 sequence
B1: the binding entry in experiment [2] and in experiment [1] was “binds” in each case.

B2: Nox4 (protein, UniProt Q9NPH5 1-578)
chain: T1 sequence
B2: the binding entry in experiment [3] is “binds”.
